Results published in article PMC3517524.
These are yes or no findings as the source states them, for the method shown. In cells and extracts the contact can be indirect. Some binding calls cover weakened binding; strength is not graded here.

The chains behind the UniProt entries cited, without tags or fusion partners.
UniProt O15054: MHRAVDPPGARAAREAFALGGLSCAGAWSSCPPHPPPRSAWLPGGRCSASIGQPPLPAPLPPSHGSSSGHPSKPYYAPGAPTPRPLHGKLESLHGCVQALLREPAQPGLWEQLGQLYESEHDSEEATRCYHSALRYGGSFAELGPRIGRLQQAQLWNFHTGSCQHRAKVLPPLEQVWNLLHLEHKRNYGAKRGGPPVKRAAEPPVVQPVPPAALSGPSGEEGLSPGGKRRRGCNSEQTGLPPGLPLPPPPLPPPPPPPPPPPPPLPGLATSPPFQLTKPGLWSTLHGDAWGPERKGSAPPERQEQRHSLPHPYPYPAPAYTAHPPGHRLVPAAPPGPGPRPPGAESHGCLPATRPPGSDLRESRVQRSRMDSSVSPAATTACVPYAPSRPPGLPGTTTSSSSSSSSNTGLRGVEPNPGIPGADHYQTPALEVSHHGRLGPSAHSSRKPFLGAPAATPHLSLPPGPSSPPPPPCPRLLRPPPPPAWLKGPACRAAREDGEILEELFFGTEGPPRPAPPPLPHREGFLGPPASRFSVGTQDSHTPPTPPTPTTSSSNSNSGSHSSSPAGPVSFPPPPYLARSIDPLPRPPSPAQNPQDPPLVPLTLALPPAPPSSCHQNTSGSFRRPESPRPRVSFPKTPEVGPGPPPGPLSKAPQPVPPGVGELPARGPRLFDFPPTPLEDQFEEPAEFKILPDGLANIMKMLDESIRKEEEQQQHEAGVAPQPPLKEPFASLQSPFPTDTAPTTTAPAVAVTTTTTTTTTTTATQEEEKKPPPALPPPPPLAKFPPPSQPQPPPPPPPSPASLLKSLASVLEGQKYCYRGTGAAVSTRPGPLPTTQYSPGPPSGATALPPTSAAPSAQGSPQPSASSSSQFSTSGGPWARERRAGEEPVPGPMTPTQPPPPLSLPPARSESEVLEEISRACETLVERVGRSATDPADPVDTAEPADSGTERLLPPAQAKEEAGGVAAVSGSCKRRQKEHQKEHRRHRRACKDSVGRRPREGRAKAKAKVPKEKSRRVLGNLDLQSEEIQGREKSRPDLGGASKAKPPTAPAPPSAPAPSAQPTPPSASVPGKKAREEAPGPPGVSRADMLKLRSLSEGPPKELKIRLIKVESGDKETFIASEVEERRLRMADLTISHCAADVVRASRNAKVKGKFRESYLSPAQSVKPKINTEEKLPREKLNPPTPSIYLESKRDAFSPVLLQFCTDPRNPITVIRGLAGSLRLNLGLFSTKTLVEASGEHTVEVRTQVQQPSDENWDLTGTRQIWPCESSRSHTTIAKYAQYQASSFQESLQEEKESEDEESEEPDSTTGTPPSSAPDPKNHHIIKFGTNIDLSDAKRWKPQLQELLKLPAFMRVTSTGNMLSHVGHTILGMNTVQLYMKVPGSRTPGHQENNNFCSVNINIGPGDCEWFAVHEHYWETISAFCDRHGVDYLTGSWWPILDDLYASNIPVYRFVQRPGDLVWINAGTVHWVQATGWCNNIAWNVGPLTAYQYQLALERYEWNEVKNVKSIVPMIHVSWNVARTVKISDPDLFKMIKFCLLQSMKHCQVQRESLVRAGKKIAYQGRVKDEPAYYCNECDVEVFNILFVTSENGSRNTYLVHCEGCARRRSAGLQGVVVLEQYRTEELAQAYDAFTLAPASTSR

Tests used:
[1] = biological target: Histone demethylase Jumonji D3 (JMJD3), wild-type, FLAG-tagged (p3xFLAG-CMV-JMJD3 wild-type) (UniProt O15054); assay: co-IP; GSC 923 cells overexpressing FLAG-JMJD3 or JMJD3 MT; 500-1000 ug lysate, Santa Cruz Exacta-Cruz protocol, western blot for endogenous p53
[2] = biological target: Histone demethylase Jumonji D3 (JMJD3), wild-type, FLAG-tagged (p3xFLAG-CMV-JMJD3 wild-type) (UniProt O15054); assay: co-IP; HEK 293 cells transfected with FLAG-JMJD3 or JMJD3 MT; 500-1000 ug lysate, Santa Cruz Exacta-Cruz protocol, western blot for endogenous p53

Substance: p53 protein, endogenous (from UniProt P04637 1-393)
- binding [1]: binds
- binding [2]: binds
